# Experimental data published in the supplement of paper PMC4962491.
# Where a name gives a salt, the structure may show the parent alone. ± gives the standard deviation of the averaged measurements. The entries are a selection whose mix differs from that of the whole data set. Repeats in this data set agree poorly, so a single value says little.
# Test system: FaDu
# Assay: mitochondrial oxygen consumption rate normalised to cell number, Z score over the library; higher = higher oxygen consumption (negative = OCR reduction)
# Settings: treatment time 24 h, assay medium: 5 mM galactose, 5 mM pyruvate, 4 mM glutamine
# Procedure: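 Primary screen: FaDu cells were incubated 24 h with Pharmakon 1600 / TDI oncology set compounds at 2 or 10 uM. Mitochondrial-specific OCR (basal minus 2 uM antimycin A) was measured on a Seahorse XF96 in assay medium with 5 mM galactose, 5 mM pyruvate and 4 mM glutamine, then corrected for Hoechst cell number and expressed as a Z score […]. Compounds that cut cell number by >66% were excluded. Two repeats.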
Structure (SMILES),mitochondrial oxygen consumption rate normalised (2 µM),mitochondrial oxygen consumption rate normalised (10 µM)
COC(=O)[C@H]1[C@H]2C[C@@H]3c4[nH]c5cc(OC)ccc5c4CCN3C[C@H]2C[C@@H](OC(=O)c2cc(OC)c(OC)c(OC)c2)[C@@H]1OC,-0.792 ± 0.14,
CCCc1nc(C)c2c(O)nc(-c3cc(S(=O)(=O)N4CCN(CC)CC4)ccc3OCC)nn12,-0.0767 ± 0.89,
N[C@H](Cc1ccccc1)C(=O)O,-0.763 ± 0.44,
O=c1c(-c2ccc(O)cc2)coc2cc(O)cc(O)c12,-1.9 ± 0.61,
C[C@@H]1CC(=O)NN=C1c1ccc(NN=C(C#N)C#N)cc1,-0.534 ± 0.77,
C[C@@H](c1ncncc1F)[C@](O)(Cn1cncn1)c1ccc(F)cc1F,0.501 ± 0.59,
O=C(Nc1cc(Cl)cc(Cl)c1O)c1c(O)c(Cl)cc(Cl)c1Cl,1.17 ± 1.3,
O=C(O)Cc1ccccc1Nc1c(Cl)cccc1Cl,-0.355 ± 1.4,
CS(=O)(=O)c1ccc([C@@H](O)[C@@H](CO)NC(=O)C(Cl)Cl)cc1,0.476 ± 0.59,
CC(C)Cc1ccc([C@H](C)C(=O)O)cc1,0.0549 ± 0.3,
C[C@]12C=CC(=O)C=C1CC[C@@H]1[C@@H]2[C@@H](O)C[C@@]2(C)[C@H]1CC[C@]2(O)C(=O)CO,-0.0694 ± 0.7,
CCOc1cc(NC(C)=O)ccc1C(=O)OC,-0.364 ± 0.45,-0.0275 ± 0.23
O=c1[nH]cc(F)c(=O)[nH]1,0.278 ± 1.1,
O=c1[nH]cc(F)c(=O)[nH]1 [Fluorouracil  (5-FU)],1.39 ± 0.077,
CC(=O)Oc1c(C)cccc1C(=O)O,0.0311 ± 0.42,
N=c1ccn2c(n1)O[C@H]1[C@H](O)[C@@H](CO)O[C@H]12,0.338 ± 0.043,
OC[C@@H](O)[C@@H](O)CO,-0.27 ± 0.034,
O=C1C(CC[S+]([O-])c2ccccc2)C(=O)N(c2ccccc2)N1c1ccccc1 (configuration not stated),-1.16 ± 0.2,
CC(=O)OC/C=C(C)/C=C/C=C(C)/C=C/C1=C(C)CCCC1(C)C,-0.78 ± 0.26,
CCCCC(=O)OCC(=O)[C@]1(O)Cc2c(O)c3c(c(O)c2[C@@H](O[C@H]2C[C@H](NC(=O)C(F)(F)F)[C@H](O)[C@H](C)O2)C1)C(=O)c1c(OC)cccc1C3=O [valrubicin],1.16 ± 0.57,

Structure (SMILES),mitochondrial oxygen consumption rate normalised (2 µM),mitochondrial oxygen consumption rate normalised (10 µM)
NS(=O)(=O)c1cc2c(cc1Cl)N=C(CSCc1ccccc1)NS2(=O)=O,0.0076 ± 0.69,
CC(C)[C@@H]1CC[C@@H](C)C[C@H]1O,-1.01 ± 0.56,
O=C1CC[C@@H](C(=O)O)N1,0.35 ± 0.99,
C#C[C@]1(O)CC[C@H]2[C@@H]3CCC4=CC(=O)CC[C@@H]4[C@H]3CC[C@@]21C,0.403 ± 0.16,
CO[C@@]1(NC(=O)C(C(=O)O)c2ccc(O)cc2)C(=O)N2C(C(=O)O)=C(CSc3nnnn3C)CO[C@@H]21 (some centres not stated),0.109 ± 1,
Nc1ccc(S(=O)(=O)Nc2ncccn2)cc1,-0.52894 ± 0.00041,
C#C[C@]1(OC(C)=O)CC[C@H]2[C@@H]3CCC4=C[C@@H](OC(C)=O)CC[C@@H]4[C@H]3CC[C@@]21C,0.254 ± 0.057,
CN(C)CCCN1c2ccccc2CCc2ccc(Cl)cc21,0.598 ± 0.049,
CO[C@@]1(NC(=O)C2SC(=C(C(N)=O)C(=O)O)S2)C(=O)N2C(C(=O)O)=C(CSc3nnnn3C)CS[C@@H]21 (some centres not stated),-0.428 ± 0.23,
Cc1cc(NC(=O)C2=C(O)c3ccccc3S(=O)(=O)N2C)no1,0.468 ± 0.54,
Cc1cc(C(C)(C)CC(C)(C)C)ccc1OCCOCC[N+](C)(C)Cc1ccccc1,-2.98 ± 0.25,
Nc1ccc(O)c(C(=O)O)c1,0.411 ± 2,
CCC(=O)O[C@H](CC(=O)O)C[N+](C)(C)C,-0.358 ± 0.49,
Clc1ccccc1CN1CCc2sccc2C1,-0.215 ± 0.37,
COC(=O)C1=C(C)NC(C)=C(C(=O)OC)C1c1ccccc1[N+](=O)[O-],0.685 ± 0.12,
Nc1ncnc2c1ncn2[C@@H]1O[C@H](COP(=O)(O)O)[C@@H](O)[C@H]1O,0.196 ± 0.41,
CCC(=O)O[C@H]1[C@H](O[C@@H]2[C@@H](C)[C@H](O[C@H]3C[C@@](C)(OC)[C@@H](O)[C@H](C)O3)[C@@H](C)C(=O)O[C@H](CC)[C@@](C)(O)[C@H](O)[C@@H](C)C(=O)[C@H](C)C[C@@]2(C)O)O[C@H](C)C[C@@H]1N(C)C,0.947 ± 0.042,
NC(=O)c1ncn([C@@H]2O[C@H](CO)[C@@H](O)[C@H]2O)c1N,0.0152 ± 0.32,
CC(c1cc2ccccc2s1)N(O)C(N)=O (configuration not stated),-0.973 ± 0.61,
CC(=O)Oc1cc(C(C)C)c(OCCN(C)C)cc1C,-1.14 ± 0.53,-0.219 ± 0.18

# Part of the list above, tab-delimited.
Structure (SMILES)	mitochondrial oxygen consumption rate normalised (2 µM)	mitochondrial oxygen consumption rate normalised (10 µM)
CCOc1cc(NC(C)=O)ccc1C(=O)OC	-0.364 ± 0.45	-0.0275 ± 0.23
O=c1[nH]cc(F)c(=O)[nH]1	0.278 ± 1.1	
O=c1[nH]cc(F)c(=O)[nH]1 [Fluorouracil  (5-FU)]	1.39 ± 0.077	
CC(=O)Oc1c(C)cccc1C(=O)O	0.0311 ± 0.42	
N=c1ccn2c(n1)O[C@H]1[C@H](O)[C@@H](CO)O[C@H]12	0.338 ± 0.043	
OC[C@@H](O)[C@@H](O)CO	-0.27 ± 0.034	
O=C1C(CC[S+]([O-])c2ccccc2)C(=O)N(c2ccccc2)N1c1ccccc1 (configuration not stated)	-1.16 ± 0.2	
CC(=O)OC/C=C(C)/C=C/C=C(C)/C=C/C1=C(C)CCCC1(C)C	-0.78 ± 0.26	
CCCCC(=O)OCC(=O)[C@]1(O)Cc2c(O)c3c(c(O)c2[C@@H](O[C@H]2C[C@H](NC(=O)C(F)(F)F)[C@H](O)[C@H](C)O2)C1)C(=O)c1c(OC)cccc1C3=O [valrubicin]	1.16 ± 0.57	
NS(=O)(=O)c1cc2c(cc1Cl)N=C(CSCc1ccccc1)NS2(=O)=O	0.0076 ± 0.69	
CC(C)[C@@H]1CC[C@@H](C)C[C@H]1O	-1.01 ± 0.56	
O=C1CC[C@@H](C(=O)O)N1	0.35 ± 0.99	
C#C[C@]1(O)CC[C@H]2[C@@H]3CCC4=CC(=O)CC[C@@H]4[C@H]3CC[C@@]21C	0.403 ± 0.16	
CO[C@@]1(NC(=O)C(C(=O)O)c2ccc(O)cc2)C(=O)N2C(C(=O)O)=C(CSc3nnnn3C)CO[C@@H]21 (some centres not stated)	0.109 ± 1	
Nc1ccc(S(=O)(=O)Nc2ncccn2)cc1	-0.52894 ± 0.00041	

# Additional entries

Structure (SMILES),mitochondrial oxygen consumption rate normalised (2 µM),mitochondrial oxygen consumption rate normalised (10 µM)
O=C(O)c1cc(O)c2c(c1)[C@H]([C@H]1c3cc(C(=O)O)cc(O)c3C(=O)c3c(O[C@@H]4O[C@H](CO)[C@@H](O)[C@H](O)[C@H]4O)cccc31)c1cccc(O[C@@H]3O[C@H](CO)[C@@H](O)[C@H](O)[C@H]3O)c1C2=O,0.963 ± 1.3,0.905 ± 0.018
CNNCc1ccc(C(=O)NC(C)C)cc1,0.067 ± 0.56,0.342 ± 0.2
CNNCc1ccc(C(=O)NC(C)C)cc1 [Procarbazine HCl],1.3 ± 0.2,0.127 ± 0.26
O=c1[nH]c(=O)n([C@H]2C[C@H](O)[C@@H](CO)O2)cc1F [Floxuridine],0.21 ± 0.59,
O=c1[nH]c(=O)n([C@H]2C[C@H](O)[C@@H](CO)O2)cc1F,-1.01 ± 0.66,
CN(C)CCC=C1c2ccccc2C=Cc2ccccc21,-0.137 ± 0.42,
CN(C)CCc1c[nH]c2ccc(C[C@H]3COC(=O)N3)cc12,0.903 ± 0.19,0.529 ± 0.45
NS(=O)(=O)c1cc2c(cc1Cl)NCNS2(=O)=O,-0.974 ± 0.16,
CC1CCC(NC(=O)N(CCCl)N=O)CC1 (configuration not stated),0.727 ± 2,
Oc1ccc(O)cc1,0.395 ± 0.35,
Nc1ccc(S(=O)(=O)Nc2ccc(Cl)nn2)cc1,0.254 ± 0.034,
Cc1cc2nc3ccc(N(C)C)cc3[s+]c2cc1N,-0.0114 ± 0.47,
CN(C)CCCOc1nn(Cc2ccccc2)c2ccccc12,-0.169 ± 0.47,
CC(=O)OCC(=O)[C@@]1(O)CC[C@H]2[C@@H]3CCC4=CC(=O)C=C[C@]4(C)[C@@]3(F)[C@@H](O)C[C@@]21C,0.687 ± 0.13,
CC(=O)OCC(=O)[C@@]1(O)CC[C@H]2[C@@H]3CCC4=CC(=O)CC[C@]4(C)[C@H]3C(=O)C[C@@]21C,-0.495 ± 0.19,
COc1cc(C(=O)N2CCOCC2)cc(OC)c1OC,0.485 ± 0.24,
CCCCC(=O)O[C@]1(C(=O)CO)[C@@H](C)C[C@H]2[C@@H]3CCC4=CC(=O)C=C[C@]4(C)[C@@]3(F)[C@@H](O)C[C@@]21C,0.427 ± 0.75,-0.0902 ± 0.67
OC[C@@H](O)[C@@H](O)[C@H](O)[C@@H](O)CO,-0.0314 ± 1.1,
S=C=Nc1ccc(N=C=S)cc1,0.265 ± 0.42,
CN(N=O)C(=O)N[C@@H](C=O)[C@@H](O)[C@H](O)[C@H](O)CO [Streptozocin],0.896 ± 0.4,
